Z-score data for 105 sequences are collected here from PubChem BioAssay AID1347423 (Functional Genomics Laboratory (NCATS/FGL), 2020).

Out of some 52,000 sequences screened, about 210 (0.4%) were called active.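 How the source made its calls: active means gene whose silencing raises cell survival under the drug, median off-target-corrected z-score across its silencing RNAs 2 or more; inactive means the rest.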 This is one part of the list.

This assay can be described thus: Resistance to Poly (ADP-Ribose) Polymerase inhibitor: Gene Identification via Genome-wide siRNA Screen. The following applies: mouse BRCA2 R2336H ES cells, olaparib, CellTiter-Glo viability; hits give high values. In a few lines:
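Genome-wide siRNA screen (3 siRNAs/gene, 20 nM) in mouse ES cells carrying hypomorphic BRCA2 R2336H; olaparib 500 nM added 48 h post-transfection, CellTiter-Glo viability 72 h later. Normalized to plate-median negative control; MAD z-scores, gene median, seed-adjusted.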
Take GGAACCCAAACUGAAGUAUTT against Vps41: the z-score was inactive: -0.191.
Next, GGAACUUCAGUGUCGUCUCTT against Olfr285: inactive: -0.317; GGAAUAUCCAGUAUUGAUUTT against Ly78: inactive: -0.432; GCCAGUUCGAUAUAUCUUCTT against Gstz1: inactive: -0.478.
Next, CCAAAAUGUAUACCUACUUTT against Car4: inactive: -0.638; “GCCCAACCCAUCAUAGAUCTT against 2410104I19Rik”: inactive: 0.881.
Regarding CCAUAGUAUUGAUGUCUGCTT against Cml2, the z-score was inactive: 0.819.
For GGAGACAAAGCAUUAUCUATT against Usp33, the z-score was inactive: -0.127.
On to GCAGGUCUAAUAAUGGUCATT against Syt12, for which the z-score was inactive: 1.38.
With GCACAAAUCUCUAAAGAUCTT against Cxcr6, the z-score was inactive: 0.372.
Next, GGUGAUGGACGGAAGAAGATT against Pigc: inactive: 0.0655; GGUAUUAUGACUGUAAAGGTT against Pp11r: inactive: 0.379.
In the case of GGAAGACAACUGAACAUUUTT against Ralgds it was inactive: -1.09; in that of “GGCCAAGCAUGUUUUGUCATT against 4933440J22Rik”, inactive: 0.746.
Next, “GCAUAUGAUGCCUUCCUUCTT against 6430510M02Rik”: inactive: 0.183; “GGAAGCUCUUAAAAGGUUGTT against 3110052N05Rik”: inactive: -1.3.
For CCACAUUUCUCUAACGAACTT against Prkra, the z-score is inactive: -0.359.
Next, GGACCCUCUAGAUGACCAATT against Trem2: inactive: 0.658.
Next, GGUUGAAAAGAAGUACAGUTT against Ctcf: inactive: 1.29.
Next, GGGUAAGCCAAGAAGAAGUTT against Rgs4: inactive: -0.218; GCGGCCUUCGAAGAUAUUCTT against Pnliprp2: inactive: -1.71.
For GGCUGCAUUUAUUGAUAACTT against BC037135, the z-score was inactive: 0.35.
With GCAUUAUCUGUGAAAAUCCTT against En2, the z-score was inactive: 0.32.
In the case of GGGUUCAAGGUAUUCUUAGTT against V1re5 it was inactive: -0.31; in that of GGGUCAAUCAACUUCGAGGTT against Pkp2, inactive: 0.443; in that of GGAAAUUAAGUGGAGAUCATT against Ebag9, inactive: 0.18.
Next, CCUAAGGCUCAAUGAGCCUTT against Etfb: inactive: -0.724; “GGGAAAGGAUUCAAUUAAGTT against D330050I23Rik”: inactive: 0.489; GGUAUCACCUUCGUUACUATT against Zc3hdc5: inactive: -0.613.
In the case of CCAAAAGCUACGUGCCGUATT against Kif5a it was inactive: -1.31; in that of GGGUAAUUUUGAUAUUGUCTT against Dpm1, inactive: 0.995; in that of GGAUCCUCUGGUAAAGGGATT against Gng11, inactive: 1.51.
As to GGCUUCAUGCUGGUCCUUGTT against Pim2, the z-score was inactive: 0.933.
In the case of GGGAUCAUAGACGAUAUUUTT against Fnbp4 it was inactive: -1.41; in that of GCCUUUCCUACUAUGAAUATT against Bmx, inactive: 1.03.
In the case of GGUGAAGACCUUUGUCUCCTT against Matn3 it was inactive: 0.391; in that of CCAAGGGUUGUUAAGUAUUTT against Cdh26, inactive: 0.567.
Next, “CUUCCAGUGUAGACUUAUGTT against 9430025C20Rik”: inactive: -0.908.
For GGUUGUGAGUGAGAACACUTT against Prss35, the z-score was inactive: 0.576.
In the case of CCAAGAUUCGGUUUUGCUUTT against Trerf1 it was inactive: 0.142.
Next, “GGAGAGCUGCAUGAUUUCATT against 1700073K01Rik”: inactive: -1.33; GCCAGGAAUCACAAGAGCUTT against Gm169: inactive: 0.325.
In the case of CCCAACUUCAUUUGUGUAUTT against Itga4 it was inactive: -1.15; in that of GGCUGUAAUGAGGACUGAUTT against Deb1, inactive: -1.92; in that of CCUCUUUGGGACUAUAGACTT against Olfr1357, inactive: -1.58.
Consider “GGAAAGACCUCUUGAUAGGTT against 3110043L15Rik”, for which the z-score was inactive: 0.557.
On to GGUAACAAACCGAAAGUAUTT against Polr3k, for which the z-score is inactive: 0.914.
In the case of CCAGAUUCAGUACCUCUAGTT against Kctd3 it was inactive: 0.214.
On to GGUUUCAUUUUUCGAGGAGTT against Cit, for which the z-score was inactive: 0.177.
In the case of GCCGUACUUCGUCAAGCUATT against Ung it was inactive: -0.787.
Regarding CGCUUUAGUGACUUUCAAATT against BC019776, the z-score was inactive: -0.462.
Next, GGAUCUGGCGGUUACUAAGTT against Gm867: inactive: -0.0373; GGACACCAUGCCACAGACATT against Hlx1: inactive: 0.856.
In the case of GGUCCUAGGAGACUUUUUGTT against Dnahc11 it was inactive: -0.133.
Next, GGAAAUGCUCAAAGAUUUUTT against Cenpe: inactive: 0.378.
For GGCAGCAAAAAGGUUGAUUTT against Olfr1110, the z-score was inactive: -0.379.
Take GGUCUAUCAGUGCAUCGUGTT against BC052040: the z-score is inactive: -0.5.
In the case of GCUUCAAUGAGGAGUAUCUTT against Smpdl3b it was inactive: -1.47; in that of GGAAUUUUGGAAUCACUAGTT against Ssr1, inactive: 0.47; in that of GGGACUUCAUUUUAUUCUGTT against Zcwcc2, inactive: 0.363.
In the case of “GGCUUGACUGAAUAAUAAUTT against F730108M23Rik” it was inactive: 0.0718.
In the case of GCUGAAAGAAUUCGUGGACTT against Phf2 it was inactive: -0.0193; in that of CCGUGGACAUGAAAACACCTT against Ly6g6e, inactive: 0.522; in that of GCUUUUGAAGCGACUGGGATT against Frk, inactive: -0.306.
For the sequence CGACCAUUGUGACUGGAGATT against Olfr782, the z-score is inactive: 0.624.
In the case of CCUGAGUGUGGAGUGUUUCTT against Olfr444 it was inactive: -0.711; in that of GGAAUCUAGAAGAAUCAUUTT against Gnao1, inactive: 1.21.
In the case of GGUUACAAAAGAACCAGAUTT against Pik3c2g it was inactive: -0.479; in that of GGAAAAGGUGGAAAAGUGATT against Ddx18, inactive: -1.37.
In the case of GGUGACUCUACUGGAUUUUTT against Adck4 it was inactive: -0.199; in that of GCCGGUUUAUAGAAGAAGATT against D6Wsu163e, inactive: -0.021; in that of “GGCCUCCAUAUCUAUCUAUTT against 1700123D08Rik”, inactive: -0.0151.
For the sequence “CCAUAUGAUAAGCAUAAGCTT against 9530049C15Rik”, the z-score is inactive: -0.0397.
In the case of “CCCUUCUCUGAUUGUCUGATT against 2310007F04Rik” it was inactive: -1.18; in that of “GCCACAAGGUUCGGUAUUCTT against 1700028K03Rik”, inactive: -0.41; in that of “GGAUGGUGAAAAUCUUGAGTT against 4930504E06Rik”, inactive: -0.215.
With “CCUAAGUAUCUUCUGUUGGTT against 2310016C08Rik”, the z-score was inactive: -0.24.
As to “GGAGAAUGAGCAAAUCAAATT against 4832415H08Rik”, the z-score is inactive: -0.338.
In the case of GCUCACUUCAGGUUUACCATT against Pdcd1 it was inactive: -0.426; in that of GGCAUUUAUGUCAAAGGAUTT against Fhl5, inactive: 0.272; in that of CCCGUCAAUACCACUUACCTT against BC023957, inactive: 1.89.
In the case of GGGAAGUGGAUCGUGUUCUTT against Syt8 it was inactive: -0.343; in that of GGGUCUUCUGGAGAUUCAGTT against Dgcr6, inactive: 0.364; in that of GCAUGUGUACCAUUUACCUTT against Prdx1, inactive: 0.719.
In the case of GGAGAAUCUGAUAUUGAUCTT against Cdkl2 it was inactive: 0.0565; in that of “CGCUGAAAUAAAGACCAGATT against 2400010G15Rik”, active: 1.99.
Turning to GCCUGAUUUUUUGUCUCUATT against Slc39a7, the z-score is inactive: -1.19.
As for GCAGCUAACUCCAAGUCAGTT against Tfam, the z-score is inactive: 0.127.
Next, GGAUCCGUUCAGCAGAAGGTT against Olfr1045: inactive: 0.31.
Regarding GCGACUUGGAGAGCAUUUGTT against Trim3, the z-score is inactive: -2.
Next, GCACAUGUGGAUUUCCAUCTT against Olfr547: inactive: -0.0444; GGAGAUGGAGAUUAACGACTT against Atp4a: inactive: 0.769.
Next, “CCACUACAAUGUAGCGACGTT against 9130217G22Rik”: inactive: 0.713.
Next, GCCAUUCUCCAUUGAGCUGTT against Pik3cd: inactive: -0.396; GCCACAGGAAUACAAUGUCTT against Il3ra: inactive: 0.437; GGAAACUUUCUAAAUGCUGTT against Pja1: inactive: 1.23.
Turning to GGUAUACAGGAUGUUAAGGTT against Pdlim4, the z-score was inactive: 1.23.
In the case of “GCGGCUUUAUUCACACUUUTT against 2700038N03Rik” it was inactive: 1.21; in that of GGAGACAACAACAAGACAUTT against Tbk1, inactive: -0.205; in that of GCUAAGAGUGCAGGAUUGGTT against Lhx2, inactive: -2.
Next, GCUACCUACGAUGUUCAAATT against Tomm34: inactive: 0.825; GGAUAAAGUCACCUUCAUCTT against Itgam: inactive: 0.426; GCAGAAAGCAACACGCCCUTT against MGC91106: inactive: 0.689.
In the case of GGACUACUCCAGAAAGCUUTT against Wdfy3 it was inactive: 0.199; in that of GGAUCGGCACUGGCAUGAATT against Fhl2, inactive: -1.37.
